# According to PubChem BioAssay (NCATS):
# Values joined by “and” are separate entries in the source; they are usually repeats but may differ in a detail not shown here. Equal entries are not always repeated. This is one part of the list. These are further read-outs of the screen, such as a control signal, another cell line or another target. No call is given for them. Compounds called inactive in the main read-out are mostly missing here. For some assays here: The note in brackets gives the kind of curve behind each potency; many fits are weak.
# Experiments:
# [1] = Validation of Assay for Modulators of Lamin A Splicing (AID 1459); conditions: Lamin A splicing dual RFP/GFP fluorescence reporter, ratio
# How it was run: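 Splicing correction read as GFP (500-530 nm) over DsRed2 (575-640 nm) object intensity after 48 h compound exposure of reporter HeLa S3 clones (600 cells/well, 2% FBS medium); ancitabine and cycloheximide titrations, 0.5% DMSO as vehicle.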
# [2] = qHTS Assay for Lipid Storage Modulators (AID 1519); conditions: Drosophila S3 cells, BODIPY lipid droplet/cell ratio, laser cytometry, cells loaded with oleic acid
# How it was run: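 Cells seeded at 5,000 per well were treated with compounds over a concentration series and loaded with oleic acid (400 uM, as added). Lipid droplet fluorescence (488 nm excitation, 500-530 nm channel) was read by laser-scanning cytometry and normalized to 20 uM Triacsin C.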
# [3] = qHTS assay for small molecule antagonists of androgen receptor signaling (AID 588516); conditions: AR-UAS-bla HEK293, beta-lactamase ratio, antagonist mode, 16 h; measured here: W460 blue channel fit
# How it was run: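 Antagonist-mode qHTS: inhibition of R1881 (10 nM)-driven beta-lactamase expression in GripTite HEK 293 cells is measured after 16 h; values are Hill-derived IC50s normalized between R1881 and DMSO wells.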
# [4] = qHTS assay for small molecule antagonists of glucocorticoid receptor signaling (AID 588533); conditions: HeLa MMTV-bla, GRE beta-lactamase ratio, antagonist mode, 18 h; measured here: W530 channel AC50
# [5] = qHTS assay for small molecule antagonists of peroxisome proliferator-activated receptor gamma signaling (AID 588537); conditions: HEK293 PPARg-UAS-bla, beta-lactamase ratio, antagonist mode; measured here: W460 blue channel
# How it was run: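 We seeded GeneBLAzer HEK293 reporter cells at 3000 per well, allowed 6-6.5 h attachment at 37 C, then co-treated with test compound titrations and 50 nM rosiglitazone overnight (16 h). Inhibition was quantified from 460/530 nm emission ratios.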
# [6] = qHTS assay for small molecule antagonists of vitamin D receptor signaling (AID 588541); conditions: HEK293T VDR-UAS-bla, beta-lactamase ratio, antagonist mode; measured here: W460 blue channel (cell viability)
# [7] = qHTS assay for small molecule agonists of retinoid X receptor alpha signaling (AID 588544); conditions: HEK293T RXRa-UAS-bla, beta-lactamase reporter, 18 h; 530 nm emission
# [8] = qHTS assay for small molecule antagonists of retinoid X receptor alpha signaling (AID 588546); conditions: HEK293T RXRa-UAS-bla, beta-lactamase ratio, antagonist mode; measured here: W530 green channel, cytotoxicity proxy;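 also: cells stimulated with 9-cis-retinoic acid as agonist; % is scaled to controls: 0 for no effect and ±100 for the full control effect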
# How it was run: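 Beta-lactamase reporter inhibition, read as CCF4 fluorescence ratio (ex 405, em 460/530 nm) after 2 h at RT. HEK293T UAS-bla cells, 2500/well, were stimulated with 9-cis-RA at 500 or 100 nM final alongside test compound for 18 h at 37 C.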
# [9] = S16 Schwann cell PMP22 intronic element beta-lactamase assay (AID 624044); conditions: S16 rat Schwann cells, PMP22 element beta-lactamase FRET, 24 h
# How it was run: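 Rat S16 Schwann cells with beta-Lac driven by a PMP22 intronic element, compound-treated 24 h at 37 °C. LiveBLAzer FRET B/G read: 460 nm normalized to potassium clavulanate vs DMSO; 535 nm FRET as viability; concentration-effect curves classified.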
# [10] = qHTS Assay for Modulators of Human Peripheral Myelin Protein 22 (PMP22) Expression/Activity (AID 1967); conditions: Cell-based PMP22 reporter, dual-color luciferase ratio
# How it was run: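 Readout is the corrected green/red luminescence ratio after 24 h compound exposure, normalised to untreated cells (0%). Engineered MSC80 mouse Schwann cells express green luciferase from the mouse Pmp22 promoter and red luciferase from EF-alpha as internal control.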
# [11] = qHTS Validation Assay to Find Inhibitors of Chronic Active B-Cell Receptor Signaling (AID 485345); conditions: ABC-DLBCL cells, chronic BCR signaling reporter
# How it was run: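 TMD8 ABC-DLBCL cells with dox-inducible green luciferase–IκBα fusion and red native luciferase; compounds 46 uM–3 nM, 4 h at 37C with doxycycline in 0.5% FBS IMDM. Green/red ratio normalized to basal and 10 uM MG-132.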
# [12] = Nrf2 qHTS screen for inhibitors: Validation (AID 493153); conditions: A549 ARE-Fluc reporter, 18-24 h; AC50: CellTiter-Fluor fluorescence read, measured here: cytotoxicity CellTiter-Fluor AC50; viability change: measured here: cytotoxicity max response
# How it was run: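 A549 cells carrying ARE-firefly luciferase reporter, 5000 cells/well in 5% FBS OPTI-MEM, treated with compound over a concentration series for 18-24 h at 37 C. Luciferase luminescence gave Nrf2 activity; CellTiter-Fluor fluorescence gave viability.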
# [13] = A High-Content qHTS Against Drug Library for the Identification of Small Molecules that Inhibit DYT1 Early Onset Primary Dystonia-Associated Cell Pathology (AID 1645839); conditions: HEK293 Flp-In EGFP-delE TorsinA, punctate imaging, 48 h; measured here: cell count cytotoxicity
# How it was run: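 Readout: %pathology, the punctate EGFP-TorsinA distribution from imaging, as the primary channel and cell count as the toxicity counterscreen. HEK293 Flp-In cells expressing delE TorsinA were induced with tetracycline and treated with compound for 48 h.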
# [14] = measured here: cell count channel max response
# [15] = measured here: cell number channel AC50
# [16] = measured here: lipid (BODIPY) channel AC50
# [17] = measured here: lipid channel max response
# [18] = measured here: 460 nm blue channel
# [19] = measured here: green reporter channel AC50, mouse Pmp22 promoter in mouse Schwann cells
# [20] = measured here: red reporter channel AC50, EF-alpha promoter control reporter in MSC80 mouse Schwann cells
# [21] = measured here: CBG/CBR ratio read-out
# [22] = measured here: CBR control luciferase (viability counter)
structure (smiles),measurement,setting,value
COc1cc2c(c(OC)c1OC)-c1ccc(OC)c(=O)cc1[C@@H](NC(C)=O)CC2,AC50,[1]; measured here: GFP channel,"0.0501 µM [falling, full curve]"
same,AC50,[1]; measured here: RFP channel,"0.0708 µM [falling, full curve]"
same,max response,[2]; [14],60.7% and 42.4%
same,AC50,[2]; [15],"3.55 µM [rising, partial curve]"
same,AC50,[2]; [16],"3.55 µM [rising, partial curve, poor fit]"
same,max response,[2]; [17],67.1% and 44.4%
same,AC50,[3],"44.7 nM [falling, full curve, poor fit] and 14.1 nM [falling, full curve] and 126 nM [falling, full curve]"
same,AC50,[4],"0.708 µM [falling, full curve, poor fit]"
same,AC50,[5],"17.8 nM [falling, full curve, poor fit] and 1.78 nM [falling, full curve, poor fit] and 15.8 nM [falling, full curve, poor fit]"
same,AC50,[6],"0.0562 µM [falling, full curve]"
same,max response,[7],12.5% and 26.4% and -16.2%
same,max response,[8],6.8% and 1.57% and -8.04%
same,AC50,[9]; [18],"0.141 µM [falling, full curve]"
same,AC50,[9]; measured here: 530 nm viability channel,"0.1 µM [rising, full curve]"
CC1(C(=O)O)C2CCC(O2)C1(C)C(=O)O (configuration not stated),AC50,[1]; measured here: GFP channel,"4.47 µM [falling, full curve]"
same,AC50,[1]; measured here: RFP channel,"14.1 µM [falling, single point]"
same,max response,[2]; [14],14.7%
same,AC50,[2]; [16],"2.51 µM [falling, partial curve, poor fit]"
same,max response,[2]; [17],7.42%
same,AC50,[10]; [19],"19 µM [falling, full curve]"
same,AC50,[10]; [20],"16.9 µM [falling, full curve]"
same,AC50,[11]; [21],"6.51 µM [falling, single point]"
same,AC50,[11]; [22],"2.91 µM [rising, full curve]"
same,AC50,[12],"1.46 µM [falling, full curve]"
same,viability change,[12],-40.9%
O=c1[nH]c2ccccc2n1C1CCN(CCCC(c2ccc(F)cc2)c2ccc(F)cc2)CC1,AC50,[1]; measured here: GFP channel,"35.5 µM [falling, single point]"
same,AC50,[1]; measured here: RFP channel,"28.2 µM [falling, partial curve]"
same,AC50,[2]; [15],"8.91 µM [rising, partial curve] and 20 µM [falling, single point] and 8.91 µM [falling, full curve, poor fit]"
same,AC50,[2]; [16],"2.82 µM [rising, partial curve, poor fit] and 12.6 µM [falling, full curve, poor fit]"
same,AC50,[10]; [19],"33.8 µM [falling, full curve]"
same,AC50,[10]; [20],"26.9 µM [falling, full curve]"
same,AC50,[11]; [21],"18.4 µM [falling, partial curve]"
same,AC50,[11]; [22],"2.31 µM [rising, full curve, poor fit]"
same,AC50,[12],"29.1 µM [falling, partial curve, poor fit]"
same,viability change,[12],-39.3%
same,AC50,[6],"0.398 µM [rising, full curve, poor fit]"
same,max response,[7],-21.5%
same,AC50,[13],"11.2 µM [falling, partial curve]"
CN1C2CCC1CC(OC(=O)C(CO)c1ccccc1)C2 (configuration not stated),AC50,[1]; measured here: GFP channel,"35.5 µM [falling, single point]"
same,AC50,[1]; measured here: RFP channel,"35.5 µM [falling, single point]"
Fc1ccc(C(OCCN2CCN(CCCc3ccccc3)CC2)c2ccc(F)cc2)cc1,AC50,[1]; measured here: GFP channel,"10 µM [falling, partial curve]"
same,AC50,[1]; measured here: RFP channel,"17.8 µM [falling, partial curve]"
same,max response,[2]; [14],9.55% and -78.5%
same,AC50,[2]; [15],"44.7 µM [falling, partial curve, poor fit]"
same,AC50,[2]; [16],"44.7 µM [falling, partial curve, poor fit]"
same,max response,[2]; [17],-75.1% and -89.5%
same,AC50,[10]; [19],"21.3 µM [falling, full curve]"
same,AC50,[10]; [20],"16.9 µM [falling, full curve]"
same,AC50,[11]; [21],"29.1 µM [falling, single point]"
same,AC50,[9]; [18],"14.1 µM [falling, full curve, poor fit]"
same,AC50,[13],"7.08 µM [falling, partial curve, poor fit]"
Oc1cc2c(cc1O)[C@H]1c3ccccc3CNC1CC2 (some centres not stated),AC50,[1]; measured here: GFP channel,"35.5 µM [falling, single point]"
same,AC50,[1]; measured here: RFP channel,"14.1 µM [falling, partial curve]"
same,max response,[2]; [14],52.9%
same,max response,[2]; [17],55.4%
same,AC50,[10]; [19],"75.7 µM [falling, partial curve]"
same,AC50,[10]; [20],"67.5 µM [falling, partial curve]"
CC[C@H](CO)Nc1nc(NCc2ccccc2)c2ncn(C(C)C)c2n1,AC50,[1]; measured here: GFP channel,"15.8 µM [falling, partial curve]"
same,AC50,[1]; measured here: RFP channel,"17.8 µM [falling, partial curve]"
same,AC50,[10]; [19],"84.9 µM [falling, single point]"
same,AC50,[10]; [20],"37.9 µM [falling, full curve]"
Brc1c(Br)c(Br)c2n[nH]nc2c1Br,AC50,[1]; measured here: GFP channel,"22.4 µM [rising, single point]"
same,AC50,[1]; measured here: RFP channel,"12.6 µM [falling, partial curve]"
COc1ccc2c(c1)/C(=C/c1cnc[nH]1)C(=O)N2,AC50,[1]; measured here: GFP channel,"35.5 µM [falling, single point]"
same,AC50,[1]; measured here: RFP channel,"28.2 µM [falling, partial curve]"
same,max response,[2]; [14],50.1%
same,AC50,[2]; [15],"35.5 µM [rising, single point]"
same,AC50,[2]; [16],"35.5 µM [rising, single point]"
same,max response,[2]; [17],50%
same,AC50,[10]; [19],"95.3 µM [falling, single point]"
same,AC50,[10]; [20],"95.3 µM [falling, single point]"
same,AC50,[11]; [22],"2.91 µM [rising, partial curve]"
same,AC50,[12],"23.1 µM [falling, partial curve, poor fit]"
same,viability change,[12],-33.8%
O=c1ccn([C@@H]2O[C@H](COP(=O)(O)OP(=O)(O)O)[C@@H](O)[C@H]2O)c(=O)[nH]1,AC50,[1]; measured here: GFP channel,"4.47 µM [falling, full curve, poor fit]"
same,AC50,[1]; measured here: RFP channel,"4.47 µM [falling, full curve, poor fit]"
same,AC50,[10]; [20],"84.9 µM [falling, single point]"

# 5 entries drawn at random from those above, as already listed:
structure (smiles),measurement,setting,value
CC[C@H](CO)Nc1nc(NCc2ccccc2)c2ncn(C(C)C)c2n1,AC50,[10]; [20],"37.9 µM [falling, full curve]"
CC1(C(=O)O)C2CCC(O2)C1(C)C(=O)O (configuration not stated),AC50,[2]; [16],"2.51 µM [falling, partial curve, poor fit]"
same,AC50,[10]; [19],"19 µM [falling, full curve]"
O=c1[nH]c2ccccc2n1C1CCN(CCCC(c2ccc(F)cc2)c2ccc(F)cc2)CC1,AC50,[11]; [21],"18.4 µM [falling, partial curve]"
COc1cc2c(c(OC)c1OC)-c1ccc(OC)c(=O)cc1[C@@H](NC(C)=O)CC2,AC50,[2]; [15],"3.55 µM [rising, partial curve]"
